This test in a line: qHTS Assay for Lipid Storage Modulators in Drosophila S3 Cells.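 For cell number change: cells counted by Cell Tracker Red CMTPX staining in the red channel.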 The conditions noted are these: BODIPY lipid droplet fluorescence, 18-24 h; for cell number change: measured here: cell count max response, cells fed with added oleic acid. In outline: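 Drosophila S3 cells got compounds at several concentrations plus oleic acid (400 uM solution). Laser-scanning cytometry with 488 nm excitation read lipid droplets at 500-530 nm and cells at 575-640 nm. Percent activity was relative to 20 uM Triacsin C.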
(In general: qHTS replaces the single test concentration by a dilution series.)

Where [1] appears, read: measured here: cell number channel AC50, cells fed with added oleic acid.
[2] abbreviates: measured here: lipid fluorescence (Fed channel) AC50, cells fed with added oleic acid.

Some of the results follow. These are further read-outs of the screen, such as a control signal, another cell line or another target. No call is given for them. Most of these compounds were active or inconclusive in the main read-out, so they are no random draw. Potencies come from curve fits of mixed quality, noted in brackets.

As usually defined, the AC50 is the concentration at which the activity in the assay is half-maximal. Read a high AC50 as weaker potency. On to `Cc1cccc(NCCC(=O)c2ccc([N+](=O)[O-])cc2)c1C`, for which the cell number change is -42.5%. Besides, under setting [1], the half-maximal activity concentration (AC50) is 0.259 µM [falling, full curve]. The AC50 under setting [2] was 0.164 µM [falling, full curve, poor fit]. Consider `Cc1ccc(Sc2cc(NCCCO)c([N+](=O)[O-])c3nonc23)cc1`, for which the cell number change was -16.9%. For the same molecule, under setting [2], the AC50 is 0.731 µM [falling, full curve, poor fit]. In the case of `CC(C)c1ccc(C(=O)NC2=NCCS2)cc1`, the cell number change was -1.67%. For the same molecule, the AC50 under setting [2] was 0.731 µM [falling, single point]. `CCNC(=S)Nc1ccc(Cl)c([N+](=O)[O-])c1`: the half-maximal activity concentration (AC50) under setting [2] is 0.651 µM [rising, partial curve, poor fit]. For the molecule `CCC(=O)N1CCN(c2ccc(NC(=O)COc3ccccc3Cl)cc2)CC1`, the cell number change came out at 67.2%. In addition, the AC50 under setting [1] was 20.6 µM [rising, partial curve]. Also, the AC50 under setting [2] was 20.6 µM [rising, partial curve]. As to `C=CCOc1c(CNc2nccs2)cccc1OCC`, the cell number change is -18.4%. Take `Cc1cc(C)c(NC(=O)CN2C(=O)NC(CCc3ccccc3)C2=O)c(C)c1` (configuration not stated): the cell number change turned out to be 6.5%.

With `CCOc1ccc(/C=C2\SC(=S)N(CCCC(=O)NCCCN3CCOCC3)C2=O)cc1`, the cell number change was determined as 11.3%. The concentration at half-maximal activity (AC50) under setting [2] is 29.1 µM [falling, single point]. For `Cc1cccc(-n2ncc3c2CCCC3NC(=O)CC(F)(F)F)c1C` (configuration not stated), the cell number change was -43.6%. Moreover, under setting [1], the AC50 was 8.2 µM [falling, partial curve]. The half-maximal activity concentration (AC50) under setting [2] is 6.51 µM [falling, single point].

Consider `COCCn1c(=NC(=O)CSCC(=O)N2CCOCC2)sc2cc(C)ccc21`, for which the cell number change was -3.88%.

On to `CC(C(=O)Nc1cccc(Br)c1)c1ccc([N+](=O)[O-])cc1` (configuration not stated), for which the cell number change is -17.2%. Moreover, the half-maximal activity concentration (AC50) under setting [1] was 6.51 µM [falling, single point]. Besides, the half-maximal activity concentration (AC50) under setting [2] is 5.17 µM [falling, single point]. For the molecule `COc1ccc(N2CCN(C(=O)c3cn(C)c4ccc(S(=O)(=O)N5CCOCC5)cc4c3=O)CC2)cc1`, under setting [2], the AC50 is 29.1 µM [rising, single point]. For the molecule `O=C(O)COc1c(Cl)cc(/C=C2\NC(=O)NC2=O)cc1Br`, the cell number change was determined as 5.58%. Regarding `N/C(=N\OC(=O)CC1CCCCC1)c1ccc(Cl)cc1`, the AC50 under setting [1] was 0.326 µM [rising, full curve, poor fit] and the half-maximal activity concentration (AC50) under setting [2] is 2.06 µM [rising, partial curve, poor fit]. With `COc1ccc(-n2c(C)cc(C(=O)COC(=O)c3ccc(O)cc3O)c2C)cc1`, the cell number change is -50.5%. Moreover, the AC50 under setting [1] is 20.6 µM [falling, partial curve]. Moreover, the AC50 under setting [2] is 13 µM [falling, partial curve]. As for `CC(=O)Nc1ccc2c(c1)c1ccccc1n2C(C)=O`, the cell number change is -2.66%. Under setting [2], the AC50 is 2.06 µM [rising, partial curve]. As to `Cc1c(Cl)cccc1-n1c(SCC(=O)N2CCC(C(=O)O)CC2)nnc1-c1ccncc1`, the cell number change is -52.1%. In addition, under setting [1], the half-maximal activity concentration (AC50) is 29.1 µM [falling, single point]. Also, the AC50 under setting [2] is 29.1 µM [falling, single point]. Regarding `CS(=O)(=O)N1CCN(C(=O)CCc2ccccc2)CC1`, the cell number change turned out to be 10.6%. `COc1ccc(S(=O)(=O)N2CCN(S(=O)(=O)c3ccc4c(c3)OCCO4)CC2)cc1C`: the cell number change is -19.3%. Moreover, the concentration at half-maximal activity (AC50) under setting [2] was 0.0517 µM [falling, full curve, poor fit].

Take `CCOc1ccc2nc(SCC(=O)NCc3ccccc3OC)[nH]c2c1`: the cell number change is -9.46%. Under setting [2], the AC50 was 29.1 µM [falling, single point]. Regarding `O=C(NCCO)/C(=C\c1ccco1)NC(=O)c1cccs1`, the cell number change was -15.2%. Moreover, under setting [1], the AC50 is 0.116 µM [falling, full curve, poor fit]. `Cc1ccc(C2=NCCn3nc4cc([N+](=O)[O-])ccc4c32)cc1`: the cell number change was 19.7%. Further, the AC50 under setting [2] is 3.26 µM [rising, partial curve]. For `CCC(=O)Nc1ccc(C(=O)CSc2nnc(CNc3ccc(Cl)cc3)o2)cc1OC`, the cell number change is 23.5%. As for `NS(=O)(=O)c1ccc(NS(=O)(=O)c2ccc(NC(=O)C3CC3)cc2)cc1`, the cell number change came to 27.6%. In addition, the AC50 under setting [1] was 0.184 µM [rising, full curve, poor fit]. For the same molecule, the AC50 under setting [2] is 29.1 µM [rising, single point]. For `O=C(COC(=O)CNC(=O)c1ccccc1F)Nc1ccc2[nH]c(=O)[nH]c2c1`, the cell number change was -27.1%. Besides, the concentration at half-maximal activity (AC50) under setting [1] is 3.66 µM [falling, single point]. Also, the AC50 under setting [2] was 10.3 µM [falling, single point].

As for `Nc1ncncc1-c1ccc(Cl)cc1`, the AC50 under setting [2] is 0.092 µM [falling, full curve, poor fit]. Turning to `O=[N+]([O-])c1cccc(-c2nnc3c4ccccc4c4ccccc4n23)c1`, the cell number change was 43.6%. Also, under setting [1], the AC50 was 4.61 µM [rising, partial curve]. For the molecule `COC(=O)/C(=C\c1ccc2c(c1)c1ccccc1n2C)NC(=O)c1ccccc1`, the cell number change was -16.2%. Turning to `COc1cccc(Cc2n[nH]c(=S)n2Cc2ccco2)c1`, the cell number change came out at 9.81%. Besides, the half-maximal activity concentration (AC50) under setting [2] is 20.6 µM [rising, single point]. Turning to `COC(=O)C(CO)Nc1ncnc2onc(-c3ccc(F)cc3)c12` (configuration not stated), the half-maximal activity concentration (AC50) under setting [1] was 2.31 µM [falling, partial curve]. For `Cn1c(SCc2c(F)cccc2Cl)nc2ccccc2c1=O`, the cell number change came out at 6.62%. Besides, the AC50 under setting [2] was 0.651 µM [rising, full curve, poor fit].

As to `O=C(NCc1ccccc1Cl)c1cc([N+](=O)[O-])ccc1Cl`, the cell number change is -38.1%. Besides, the concentration at half-maximal activity (AC50) under setting [1] was 1.46 µM [falling, partial curve]. Moreover, under setting [2], the concentration at half-maximal activity (AC50) was 1.16 µM [falling, partial curve]. As for `O=C(NCc1cccnc1)c1ccc(S(=O)(=O)Nc2ccccc2)cc1`, the cell number change was determined as 39.8%. For the same molecule, the concentration at half-maximal activity (AC50) under setting [1] was 0.366 µM [rising, full curve]. In the case of `CN(C)CCCCOc1cccc(Br)c1`, the cell number change was -15.1%. Further, the AC50 under setting [1] is 0.103 µM [rising, full curve, poor fit]. Also, under setting [2], the concentration at half-maximal activity (AC50) is 2.31 µM [rising, full curve, poor fit].

As for `Cc1csc(NC(=O)C2CCCN(S(=O)(=O)c3ccc(Br)s3)C2)n1` (configuration not stated), the AC50 was 0.13 µM [falling, full curve, poor fit] under setting [1] and 16.4 µM [falling, partial curve] under setting [2]. Consider `O=[N+]([O-])c1ccc(/C=N/Nc2ncc(-c3ccccc3)cn2)cc1`, for which the cell number change is 35.2%.

On to `Cc1cccc(NC(=O)Cn2c(O)c(N=NC(N)=S)c3ccccc32)c1`, for which the cell number change is -1.95%. In addition, the concentration at half-maximal activity (AC50) under setting [2] is 29.1 µM [falling, single point].

(Values after PubChem BioAssay AID2685 (National Center for Advancing Translational Sciences (NCATS), 2010).)
